Test results from PubChem BioAssay AID328 (DTP/NCI, 2004).
The list does not hold the whole screen: it gathers tests that were run many times, whatever their T/C, doses with no T/C, and many T/C values between a quarter and a half above the control. Other doses and runs of a compound stand elsewhere. T/C: endpoint of the treated group in % of that of the vehicle group. Some doses have a count of surviving animals in place of a T/C: the source files T/C as zero there, which appears to mark a toxic dose or a test without result, not a measured value. Some survivor counts are full or nearly so, which does not show that the dose was tolerated: the source hardly ever lists a survival T/C far under the control, and the zero likely stands for such cases as well. Counts of survivors are from the toxicity check (mostly the fifth day) where no day follows; animals may have died later. Schedule codes are those of the source, taken here to give the interval after Q, in days (D) or hours (H), and the number of doses after X. Some entries hold several experiments; the results are listed from low to high. For survival time, the PubChem record calls one and a half times the control and up active, and a quarter to a half above the control has no call in these data; cut-offs in other NCI protocols can differ. Some T/C values carry the count of animals alive at the toxicity check (mostly the fifth day); where none is given, no animal had died by that day.

System: BDF1 mice, P388 leukemia ip, median survival T/C
Test: NCI In Vivo Anticancer Drug Screen. Data for tumor model P388 Leukemia (intraperitoneal) in B6D2F1 (BDF1) mice
Conditions: T/C endpoint: median survival time, higher T/C = longer survival
Procedure, shortened: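 Reported as T/C, where T is the survival measurement in dosed animals and C the same measurement in vehicle controls.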

[1] = dose: 50.0 mg/kg/injection, schedule: Q01DX009 (ip), vehicle: saline with Tween-80
[2] = dose: 100.0 mg/kg/injection, schedule: Q01DX009 (ip), vehicle: saline with Tween-80
[3] = dose: 100.0 mg/kg/injection, schedule: Q04DX003 (ip), vehicle: saline with Tween-80
[4] = dose: 50.0 mg/kg/injection, schedule: Q01DX009 (ip), vehicle: saline
[5] = dose: 200.0 mg/kg/injection, schedule: Q01DX009 (ip), vehicle: saline with Tween-80
[6] = dose: 100.0 mg/kg/injection, schedule: Q01DX009 (ip), vehicle: saline
[7] = dose: 100.0 mg/kg/injection, schedule: Q04DX003 (ip), vehicle: saline
[8] = dose: 200.0 mg/kg/injection, schedule: Q04DX003 (ip), vehicle: saline
[9] = dose: 400.0 mg/kg/injection, schedule: Q04DX003 (ip), vehicle: saline

Structure (SMILES): O=C(Nc1ccc([N+](=O)[O-])cc1)Nc1ccc([N+](=O)[O-])c(C(F)(F)F)c1
- survivor count (dose: 170.0 mg/kg/injection, schedule: Q01DX009 (ip), vehicle: Klucel (hydroxypropylcellulose) (HPC)): 6 of 6
- survivor count (dose: 225.0 mg/kg/injection, schedule: Q01DX009 (ip), vehicle: Klucel (hydroxypropylcellulose) (HPC)): 5 of 6

Structure (SMILES): O=C(Nc1ncc([N+](=O)[O-])s1)c1cccc([N+](=O)[O-])c1
- survivor count [1]: 3 of 6

Structure (SMILES): O=C1C=C(Cl)C(=O)C2=C1CCCC2
- survivor count (dose: 3.13 mg/kg/injection, schedule: Q04DX002 (ip), vehicle: saline with Tween-80): 2 of 6
- survivor count (dose: 6.25 mg/kg/injection, schedule: Q04DX002 (ip), vehicle: saline with Tween-80): 1 of 6

Structure (SMILES): CN(C)CCOc1cccc(OCCN(C)C)n1
- survivor count [2]: 1 of 6
- survivor count [3]: 5 of 6

Structure (SMILES): NC(Cn1ccc(=O)c(O)c1)C(=O)O (centres undefined)
- T/C (dose: 800.0 mg/kg/injection, schedule: Q01DX009 (ip), vehicle: saline): 133 % of control [5 of 6 alive]
- survivor count (dose: 1200.0 mg/kg/injection, schedule: Q01DX009 (ip), vehicle: saline): 1 of 6
- survivor count (dose: 1600.0 mg/kg/injection, schedule: Q01DX009 (ip), vehicle: saline): 0 of 6

Structure (SMILES): O=C1OC(=O)C2C3C=CC(O3)C12 (centres undefined)
- survivor count (dose: 6.25 mg/kg/injection, schedule: Q01DX009 (ip), vehicle: saline): 6 of 6
- survivor count (dose: 55.0 mg/kg/injection, schedule: Q01DX009 (ip), vehicle: saline): 1 of 6
- survivor count (dose: 80.0 mg/kg/injection, schedule: Q01DX009 (ip), vehicle: saline): 0 of 6

Structure (SMILES): OCC(I)C(CO)[n+]1ccccc1 (centres undefined)
- survivor count [4]: 3 of 6

Structure (SMILES): Clc1ccc(NC2=NCCN=C(Nc3ccc(Cl)cc3)SS2)cc1
- survivor count (dose: 200.0 mg/kg/injection, schedule: Q01DX009 (ip), vehicle: Klucel (hydroxypropylcellulose) (HPC)): 6 of 6

Structure (SMILES): CC(CCC/C=C/CCCN(C)C(=N)N)CC(C)C1OC(=O)C(C)C(O)/C=C/C(C)C(O)C(C)C(O)C(C)C(O)CCCC(O)CC2(O)OC(CC(OC(=O)CC(=O)O)CC(O)CC(O)C(C)C(O)/C=C/C=C/C1C)CC(O)C2O (centres undefined)
- survivor count (dose: 10.0 mg/kg/injection, schedule: Q01DX009 (ip), vehicle: saline): 2 of 6
- survivor count (dose: 16.0 mg/kg/injection, schedule: Q01DX009 (ip), vehicle: saline): 1 of 6
- survivor count (dose: 16.0 mg/kg/injection, schedule: Q04DX003 (ip), vehicle: saline): 2 of 6
- survivor count (dose: 24.0 mg/kg/injection, schedule: Q01DX009 (ip), vehicle: saline): 0 of 6

Structure (SMILES): [O-][N+](=Nc1cccc(Cl)c1)c1cccc(Cl)c1
- T/C [2]: 125 % of control

Structure (SMILES): C/C=C/c1ccccc1N/N=C(\Cl)C(=O)OCC
- T/C [1]: 128 % of control
- T/C [2]: 128 % of control [5 of 6 alive]
- T/C [5]: 137 % of control [4 of 6 alive]

Structure (SMILES): COc1cc(-c2ccc(NC(=O)NC3CC3)c(OC)c2)ccc1NC(=O)NC1CC1
- survivor count (dose: 200.0 mg/kg/injection, schedule: Q01DX005 (ip), vehicle: saline with Tween-80): 5 of 5

Structure (SMILES): Cc1cc2c(c(O)c1-c1c(C)cc(O)c3c1C(=O)C=CC3=O)C(=O)C=CC2=O
- survivor count (dose: 10.0 mg/kg/injection, schedule: Q01DX009 (ip), vehicle: saline with Tween-80): 1 of 6

Structure (SMILES): CNC(=S)N/N=C(\C)c1ccccn1
- survivor count [1]: 2 of 6 on day 9
- survivor count [2]: 0 of 6 on day 9

Structure (SMILES): CN=C(N)NCCCCCCCCNC(N)=NC
- survivor count (dose: 25.0 mg/kg/injection, schedule: Q01DX009 (ip), vehicle: saline): 2 of 6
- survivor count [4]: 0 of 6

Structure (SMILES): C[N+](C)(C)CCC[n+]1ccc(CCn2ccc3ccccc32)cc1
- survivor count (dose: 200.0 mg/kg/injection, schedule: Q01DX001 (ip), vehicle: saline): 0 of 6

Structure (SMILES): CN1CCN(c2nc3ccccc3n3nnnc23)CC1
- survivor count (dose: 75.0 mg/kg/injection, schedule: Q01DX009 (ip), vehicle: saline with Tween-80): 7 of 7

Structure (SMILES): NC1CCC(CCCC2CCCC2)CC1 (centres undefined)
- survivor count (dose: 100.0 mg/kg/injection, schedule: Q01DX009 (ip), vehicle: Klucel (hydroxypropylcellulose) (HPC)): 0 of 6

Structure (SMILES): BrCCCC[P+](c1ccccc1)(c1ccccc1)c1ccccc1
- survivor count (dose: 25.0 mg/kg/injection, schedule: Q01DX010 (ip), vehicle: saline): 6 of 6
- survivor count (dose: 50.0 mg/kg/injection, schedule: Q01DX010 (ip), vehicle: saline): 0 of 6

Structure (SMILES): CSC(=S)N/N=C(\C)C1CCCC[N-]1.[I][Zn][I] (centres undefined)
- T/C [1]: 97, 117, 125, 130 % of control
- survivor count [2]: 5 of 6 and 6 of 6
- survivor count [5]: 0 of 6

Structure (SMILES): Nc1c(Cl)cc(S(N)(=O)=O)cc1Cl
- survivor count (dose: 400.0 mg/kg/injection, schedule: Q01DX009 (ip), vehicle: saline with Tween-80): 2 of 6

Structure (SMILES): CCCC(N=Cc1ccccc1O)C(=O)O.CCCC(N=Cc1ccccc1O)C(=O)O.[Fe] (centres undefined)
- survivor count [6]: 0 of 6
- survivor count [7]: 3 of 6
- survivor count [8]: 1 of 6

Structure (SMILES): CCOC(=O)C(CC)(CCC(C)C)C(=O)OCC
- T/C [7]: 127 % of control
- T/C [8]: 127 % of control
- T/C [9]: 131 % of control

Structure (SMILES): N=C(N)SCCCCCCCCCCSC(=N)N
- survivor count [2]: 0 of 6

Structure (SMILES): C/C(CC(=O)O)=C(\C)C(=O)O
- survivor count (dose: 200.0 mg/kg/injection, schedule: Q04DX003 (ip), vehicle: water): 4 of 6
- survivor count (dose: 400.0 mg/kg/injection, schedule: Q04DX003 (ip), vehicle: water): 2 of 6

Structure (SMILES): CC(C)C(=O)[O][Sn]([c]1ccccc1)([c]1ccccc1)[c]1ccccc1
- survivor count (dose: 25.0 mg/kg/injection, schedule: Q01DX009 (ip), vehicle: saline with Tween-80): 6 of 6
- survivor count [1]: 0 of 6

Structure (SMILES): CCCCCCNP(=O)(N1CC1)N1CC1
- survivor count [3]: 5 of 6
- survivor count (dose: 200.0 mg/kg/injection, schedule: Q04DX003 (ip), vehicle: saline with Tween-80): 0 of 6
- survivor count (dose: 400.0 mg/kg/injection, schedule: Q04DX003 (ip), vehicle: saline with Tween-80): 0 of 6

Structure (SMILES): CCN(Cc1ccccc1)c1ccc(/C=C/c2nccc3ccccc23)cc1
- T/C (dose: 400.0 mg/kg/injection, schedule: Q04DX002 (ip), vehicle: saline with Tween-80): 132 % of control

Structure (SMILES): N=C(N)SCc1ccc(C(=O)Oc2ccc([N+](=O)[O-])cc2)cc1
- survivor count [6]: 3 of 6
- T/C [7]: 127 % of control
- survivor count [8]: 1 of 6 and 3 of 6
- survivor count [9]: 1 of 6

Structure (SMILES): C[N+](C)(C)c1ncnc2c1ncn2C1CCCO1 (centres undefined)
- survivor count (dose: 200.0 mg/kg/injection, schedule: Q01DX009 (ip), vehicle: saline): 2 of 6
- survivor count [9]: 1 of 6
